{
  "source": "patent US5354746A",
  "about": "“Squaric acid derivatives of substituted dibenzoxazepine compounds, pharmaceutical compositions and methods of use” (G. D. Searle & Co., priority 1993, dated 1994)",
  "system": "prostaglandin E2-induced contractions of segments of guinea pig ileum",
  "assay": "Prostaglandin (PGE) Antagonism Assay (inhibition of prostaglandin E2-induced contractions of guinea pig ileum segments)",
  "conditions": "ratio of prostaglandin E2 EC50 with/without test compound; initial concentration 3 micromolar; 30 min incubation; 37° C.; active if dose ratio >= 2",
  "procedure": "In order to determine the effectiveness of several of the compounds of the present invention (\"test compounds\") as prostaglandin E2 antagonists,a prostaglandin antagonism assay was conducted, as described below, to determine the ability of these compounds to inhibit prostaglandin E2 -induced contractions of segments of guinea pig ileum. […] Male albino guinea pigs weighing 200 to 500 grams were sacrificed by cervical dislocation. The ilea were then quickly removed from the guinea pigs and placed in a modified Tyrode solution, a solution which is known to those skilled in the art, containing one-half of the usual amount of magnesium ions. Segments of ileum about 2 cm long were then cut and mounted in a 10 mL tissue bath containing the modified Tyrode solution. […] Data for a control prostaglandin E2 dose response curve plotting concentration of prostaglandin E2 versus the intensity of contractions, detected isotonically, was then obtained by experimentally adjusting the dose of the prostaglandin E2 being injected into the tissue bath, in a manner known by those of skill in the art. […] A dose ratio is calculated from the EC50 values obtained from duplicate replications on each concentration of the test compound. […] A dose ratio of EC50 doses was calculated from the results of each test in a manner known by those of skill in the art, and described above. […]",
  "note": "At least one structure is not confirmed: it was looked up by name or label, or the drawing left a doubt.",
  "data": [
    {"smiles": "CCOC(=O)C1CN(c2c(N3Cc4ccccc4Oc4ccc(Cl)cc43)c(=O)c2=O)CCN1c1ccccc1", "note": "(stereo not shown) [Example 4, Ethyl 4-[2-(8-chlorodibenz[b,f][1,4]oxazepin-10(11H)-yl)-3,4-dioxo-1-cyclobuten-1-yl]-1-phenyl-2-piperazinecarboxylate]", "values": [
      {"measurement": "PGE ANTAGONISM IN GUINEA PIG ILEUM Dose Ratio", "result": "153 ± 74"}
    ]}
  ]
}
